Laboratory results from PubChem BioAssay AID2417 (National Center for Advancing Translational Sciences (NCATS), 2010).
Screen size: about 140,000 compounds; about 4,300 (3.1%) were called active. Inconclusive results, whose numbers are uncertain, are shown with a selection of clear calls.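 Rule for the calls: active = readout at or below -70, meaning at least 70% loss of cells showing the perinucleolar compartment, a nuclear body marking cancer cells; inconclusive = readout between -30 and a set limit; inactive = the rest.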

Assay: High Content Assay for Compounds that inhibit the Assembly of the Perinucleolar Compartment;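 note: plate controls were DMSO wells for no effect and camptothecin positive control wells for full effect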
Conditions: PC3M PTB-GFP, PNC prevalence imaging, 16 h; at 10 µM; hits give low values
Method in brief: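 PC3M cells stably expressing PTB-GFP, 750–1000 cells/well, treated 16 h at 37 °C with compound (23 nl of library stock), in duplicate. After paraformaldehyde fixation and Hoechst stain, imaged at 20x; PNC prevalence scored by image analysis.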

Structure (SMILES)	activity change (PNC), negative = inhibition
O=C(Cn1ncc2c3ccccc3n(Cc3ccc(F)cc3)c2c1=O)N1CCN(c2ncccn2)CC1	inconclusive: -71.7%
COC(=O)CN(n1cnnc1)S(=O)(=O)c1ccccc1	inconclusive: -48%
C1=CN2CCC1C(c1ccccc1)C2 (centres undefined)	inconclusive: -42.4%
CCOC(=O)c1ccc(NC(=O)CN2C(=O)C3C4C=CC(C4)C3C2=O)cc1 (centres undefined)	inconclusive: -33.2%
CN1C(=S)SC(C)(C)C1/[N+]([O-])=C/c1cccnc1 (centres undefined)	inconclusive: -41.9%
COc1ccc(-c2noc(CCCC(=O)Nc3ccc(C(N)=O)cc3)n2)cc1	inconclusive: -39.5%
O=c1c2ccccc2nc(SCc2cccc(F)c2)n1Cc1ccco1	inconclusive: -47%
Cc1ccc(CNC(=O)Cn2c(=O)c3sccc3n(Cc3ccc([N+](=O)[O-])cc3)c2=O)cc1	inconclusive: -51.7%
CC(C)(C)SCCNC(=O)/C=C/c1cccc([N+](=O)[O-])c1	inactive: 28.8%
O=c1[nH]c2ccccc2n1Cc1ccc(Cl)cc1	inconclusive: -31%
COc1ccc(CNc2ccc(-c3ccccc3OC)nn2)cc1	inconclusive: -36.6%
CNc1nc(-c2ccc([N+](=O)[O-])cc2)cs1	inactive: 56.2%
Cn1c(=O)c2c(nc(CN3CCOCC3)n2CC(O)CO)n(C)c1=O (centres undefined)	inconclusive: -36.8%
Cc1ccc(C(=O)Nc2cc(=O)n(C)c(=O)n2C)cc1C	inconclusive: -32.2%
O=C(NCCN1CCOCC1)N1c2ccccc2Sc2ccccc21	inactive: 52%
O=S(=O)(c1ccccc1)c1nc(-c2cccs2)oc1NCC1CCCO1 (centres undefined)	inconclusive: -31.2%
Cc1ccccc1NC(=O)C(=O)N/N=C/c1cccc(Br)c1	active: -114%
CCOCCCN1CC(C(=O)NCCc2ccccc2)CC1=O (centres undefined)	inconclusive: -43.2%
O=C(NCC1CCCO1)c1cc2ccccc2[nH]1 (centres undefined)	active: -123%
c1coc(CNc2ncnc3sc4c(c23)CCCCC4)c1	inconclusive: -44.9%

Part of the list above, reformatted.
Structure (SMILES) | activity change (PNC), negative = inhibition
O=c1c2ccccc2nc(SCc2cccc(F)c2)n1Cc1ccco1 | inconclusive: -47%
Cc1ccc(CNC(=O)Cn2c(=O)c3sccc3n(Cc3ccc([N+](=O)[O-])cc3)c2=O)cc1 | inconclusive: -51.7%

(further entries)

Structure (SMILES)	activity change (PNC), negative = inhibition
Cc1ccccc1OCC(=O)NNC(=O)C1CCCCC1C(=O)O (centres undefined)	inconclusive: -67.2%
Cc1cc(OCC(=O)N2CCOCC2)cc2oc(=O)c3ccccc3c12	inconclusive: -31.2%
CCNC(=O)NC(=O)COC(=O)CCCSc1nc2ccccc2s1	inactive: -19.3%
CCOc1ccc(Br)cc1S(=O)(=O)Nc1ccc(C(=O)Nc2ccccc2OC)cc1	inconclusive: -43.6%
CCc1[nH]nc2c1C(C(C)C)C(C#N)=C(N)O2 (centres undefined)	inconclusive: -35.7%
COCCNc1oc(-c2ccccc2Cl)nc1C#N	inactive: 25.6%
CC(C)C(OC(=O)c1ccco1)C(=O)NCc1ccccc1 (centres undefined)	inconclusive: -44%
CC(=O)Oc1ccc(-c2nc(-c3cccnc3)no2)cc1	inconclusive: -53.6%
CN1CCCc2cc(C#N)c(=O)[nH]c21	inconclusive: -68.2%
Cc1ccc(C(C)C)c(OCC(=O)Nn2c(C)nc3ccccc3c2=O)c1	inconclusive: -46%
CC(OC(=O)c1cc2sccc2n1C)C(=O)NCC1CCCO1 (centres undefined)	inconclusive: -47.6%
COc1cccc2sc(N3CCN(c4nc5ccccc5s4)CC3)nc12	inconclusive: -53.4%
CSc1nnc(-c2cc3c(s2)-c2ccccc2CC3)o1	inconclusive: -41.4%
CN1CCc2c1nc1ccccc1c2N=C1CCCN1Cc1ccccc1	inconclusive: -41.7%
CC1CC(C)(C)NC(=S)N1CC(=O)NCc1ccc(Cl)cc1 (centres undefined)	inconclusive: -67.3%
N#Cc1c(-c2ccc(C(F)(F)F)cc2)cc(-c2ccccc2)[nH]c1=S	active: -99.3%
Cc1cccc(Nc2nc(N)nc(CN3CCN(c4ccc(F)cc4)CC3)n2)c1	inconclusive: -48.3%
Cn1c(-[n+]2c(-c3ccccc3)cc(-c3ccccc3)cc2-c2ccccc2)nc2cc([N+](=O)[O-])ccc21	inactive: 4.41%
COc1cccc(Nc2nnc(SCC(=O)N3CCOCC3)s2)c1	inconclusive: -41.9%
C=CCN(CC(=O)Nc1c(C)cccc1CC)C(=O)SCCC	inconclusive: -36.3%

Structure (SMILES)	activity change (PNC), negative = inhibition
COc1cccc(Cn2cnc3c(NS(=O)(=O)c4cccc(Cl)c4Cl)c(C)c(C)cc32)c1	inconclusive: -42.3%
Cc1ccc(-c2ccc(OCC(=O)N3CCOCC3)cc2)cc1	inconclusive: -30.8%
CCOC(=O)c1c(-c2ccco2)csc1N	inactive: 1.83%
COc1cc(/C=N/NC(=O)Nc2ccccc2)ccc1OCCOc1ccccc1C	inactive: -16.5%
COc1ccc(OC)c(N(CC(=O)N2CCCC2)S(=O)(=O)c2ccc(OC)c(OC)c2)c1	inconclusive: -57.4%
CC(=O)Nc1ccc(NC(=O)CN(c2ccccc2Cl)S(C)(=O)=O)cc1	inconclusive: -34.3%
O=C(CCn1c(=O)c2sccc2n(CC(=O)OCc2ccccc2)c1=O)NCc1ccccc1	inactive: -8.88%
CCCC1(C)SC(NC(C)=O)=NN1C(C)=O (centres undefined)	inconclusive: -38.8%
Clc1ccc(OCCCc2nc(-c3cccnc3)no2)c(Cl)c1	inactive: 8.01%
CCOc1ccc(-n2nc(C(=O)N3CCN(CC)CC3)c3ccccc3c2=O)cc1	active: -85.6%
COc1ccc(N/N=C(/C)c2cnnc(-c3ccccc3)n2)cc1	inactive: -5.29%
O=C1CCC(/C=C/c2ccccc2)=NN1Cc1ccc(Cl)c(Cl)c1	inconclusive: -46.1%
Cc1ccc(CNc2oc(-c3ccco3)nc2C#N)cc1	inconclusive: -34%
CCOc1ccc(NC(=O)CN2CCN(S(=O)(=O)c3ccc(Cl)cc3)CC2)cc1	inactive: 0.961%
Cc1cc(-c2nnc(SCC(=O)N3C(C)CCCC3C)o2)no1 (centres undefined)	inconclusive: -49.9%
CCN1/C(=C/c2cc[n+](C)cc2)C=Cc2cc(C)ccc21	inconclusive: -77.1%
CCCCNC(=O)NC1(C(F)(F)F)Oc2ccccc2O1	inactive: -11.6%
Cc1ccccc1-n1nnnc1SCc1ncc(-c2ccccc2)o1	inactive: -22.8%
CC1(C)NC(=O)N(CCCCOc2cccc(C(F)(F)F)c2)C1=O	inconclusive: -32.8%
